Reference: ChEMBL document CHEMBL5465560, “Selectivity Literature for EUbOPEN Chemogenomic Library” (2024)

Amino acid sequences for entries named in this document (tags omitted). A change or cut given only in a name is not applied to a line headed by its entry.
UniProt P36896: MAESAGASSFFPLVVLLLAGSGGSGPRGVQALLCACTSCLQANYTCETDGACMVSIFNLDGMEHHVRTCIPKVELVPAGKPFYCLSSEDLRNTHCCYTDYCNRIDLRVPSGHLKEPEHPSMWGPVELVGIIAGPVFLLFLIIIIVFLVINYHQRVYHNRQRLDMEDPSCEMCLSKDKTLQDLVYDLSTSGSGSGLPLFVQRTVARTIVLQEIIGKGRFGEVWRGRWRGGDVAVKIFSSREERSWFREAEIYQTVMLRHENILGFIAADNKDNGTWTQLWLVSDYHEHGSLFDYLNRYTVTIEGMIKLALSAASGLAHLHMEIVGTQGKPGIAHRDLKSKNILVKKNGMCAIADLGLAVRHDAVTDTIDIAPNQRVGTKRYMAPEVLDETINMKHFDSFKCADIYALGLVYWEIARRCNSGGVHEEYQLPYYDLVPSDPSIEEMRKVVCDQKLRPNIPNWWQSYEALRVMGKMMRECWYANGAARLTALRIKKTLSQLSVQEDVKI
UniProt P17948, whole entry: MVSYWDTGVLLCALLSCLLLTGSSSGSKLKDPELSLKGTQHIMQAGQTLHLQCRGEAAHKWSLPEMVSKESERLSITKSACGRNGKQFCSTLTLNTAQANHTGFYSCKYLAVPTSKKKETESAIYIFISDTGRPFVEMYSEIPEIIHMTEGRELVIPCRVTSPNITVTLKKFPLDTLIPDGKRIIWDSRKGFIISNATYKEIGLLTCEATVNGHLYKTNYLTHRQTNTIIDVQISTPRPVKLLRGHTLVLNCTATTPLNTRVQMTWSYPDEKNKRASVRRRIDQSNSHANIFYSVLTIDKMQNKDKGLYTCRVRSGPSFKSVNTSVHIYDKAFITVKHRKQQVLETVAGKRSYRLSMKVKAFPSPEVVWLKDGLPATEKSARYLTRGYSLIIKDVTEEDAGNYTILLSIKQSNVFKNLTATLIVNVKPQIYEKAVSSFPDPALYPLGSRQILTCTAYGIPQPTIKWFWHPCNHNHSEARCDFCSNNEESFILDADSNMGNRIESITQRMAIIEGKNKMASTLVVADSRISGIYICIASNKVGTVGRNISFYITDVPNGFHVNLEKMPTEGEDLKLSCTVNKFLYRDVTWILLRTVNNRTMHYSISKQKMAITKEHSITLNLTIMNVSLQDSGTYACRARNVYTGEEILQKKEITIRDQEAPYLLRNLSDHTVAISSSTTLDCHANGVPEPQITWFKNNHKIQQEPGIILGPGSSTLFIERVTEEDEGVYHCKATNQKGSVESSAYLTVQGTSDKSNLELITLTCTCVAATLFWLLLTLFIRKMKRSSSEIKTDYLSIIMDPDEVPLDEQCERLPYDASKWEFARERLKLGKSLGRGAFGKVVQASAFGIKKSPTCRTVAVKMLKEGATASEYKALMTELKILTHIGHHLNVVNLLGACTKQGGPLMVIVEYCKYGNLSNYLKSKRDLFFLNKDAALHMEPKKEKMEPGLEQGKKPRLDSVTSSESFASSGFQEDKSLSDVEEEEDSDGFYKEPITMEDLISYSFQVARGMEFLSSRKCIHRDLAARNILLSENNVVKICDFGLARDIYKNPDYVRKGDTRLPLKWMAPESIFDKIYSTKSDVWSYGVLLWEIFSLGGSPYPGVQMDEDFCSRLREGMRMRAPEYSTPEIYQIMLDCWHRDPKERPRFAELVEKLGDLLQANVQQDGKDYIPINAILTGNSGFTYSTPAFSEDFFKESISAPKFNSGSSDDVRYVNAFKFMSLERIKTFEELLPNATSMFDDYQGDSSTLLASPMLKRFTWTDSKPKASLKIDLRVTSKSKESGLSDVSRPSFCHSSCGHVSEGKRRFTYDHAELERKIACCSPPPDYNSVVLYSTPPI
UniProt P49841: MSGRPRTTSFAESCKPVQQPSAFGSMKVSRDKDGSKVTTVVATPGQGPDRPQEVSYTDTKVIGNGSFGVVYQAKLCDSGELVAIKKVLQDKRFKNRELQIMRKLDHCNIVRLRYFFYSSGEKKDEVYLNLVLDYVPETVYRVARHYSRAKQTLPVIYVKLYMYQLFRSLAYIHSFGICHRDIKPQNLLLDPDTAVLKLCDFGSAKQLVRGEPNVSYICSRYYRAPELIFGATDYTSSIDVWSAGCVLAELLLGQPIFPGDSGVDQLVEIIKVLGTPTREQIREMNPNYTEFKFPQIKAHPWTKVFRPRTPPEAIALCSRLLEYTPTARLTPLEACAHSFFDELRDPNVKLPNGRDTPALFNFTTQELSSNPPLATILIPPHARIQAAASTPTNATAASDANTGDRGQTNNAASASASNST
UniProt P14616: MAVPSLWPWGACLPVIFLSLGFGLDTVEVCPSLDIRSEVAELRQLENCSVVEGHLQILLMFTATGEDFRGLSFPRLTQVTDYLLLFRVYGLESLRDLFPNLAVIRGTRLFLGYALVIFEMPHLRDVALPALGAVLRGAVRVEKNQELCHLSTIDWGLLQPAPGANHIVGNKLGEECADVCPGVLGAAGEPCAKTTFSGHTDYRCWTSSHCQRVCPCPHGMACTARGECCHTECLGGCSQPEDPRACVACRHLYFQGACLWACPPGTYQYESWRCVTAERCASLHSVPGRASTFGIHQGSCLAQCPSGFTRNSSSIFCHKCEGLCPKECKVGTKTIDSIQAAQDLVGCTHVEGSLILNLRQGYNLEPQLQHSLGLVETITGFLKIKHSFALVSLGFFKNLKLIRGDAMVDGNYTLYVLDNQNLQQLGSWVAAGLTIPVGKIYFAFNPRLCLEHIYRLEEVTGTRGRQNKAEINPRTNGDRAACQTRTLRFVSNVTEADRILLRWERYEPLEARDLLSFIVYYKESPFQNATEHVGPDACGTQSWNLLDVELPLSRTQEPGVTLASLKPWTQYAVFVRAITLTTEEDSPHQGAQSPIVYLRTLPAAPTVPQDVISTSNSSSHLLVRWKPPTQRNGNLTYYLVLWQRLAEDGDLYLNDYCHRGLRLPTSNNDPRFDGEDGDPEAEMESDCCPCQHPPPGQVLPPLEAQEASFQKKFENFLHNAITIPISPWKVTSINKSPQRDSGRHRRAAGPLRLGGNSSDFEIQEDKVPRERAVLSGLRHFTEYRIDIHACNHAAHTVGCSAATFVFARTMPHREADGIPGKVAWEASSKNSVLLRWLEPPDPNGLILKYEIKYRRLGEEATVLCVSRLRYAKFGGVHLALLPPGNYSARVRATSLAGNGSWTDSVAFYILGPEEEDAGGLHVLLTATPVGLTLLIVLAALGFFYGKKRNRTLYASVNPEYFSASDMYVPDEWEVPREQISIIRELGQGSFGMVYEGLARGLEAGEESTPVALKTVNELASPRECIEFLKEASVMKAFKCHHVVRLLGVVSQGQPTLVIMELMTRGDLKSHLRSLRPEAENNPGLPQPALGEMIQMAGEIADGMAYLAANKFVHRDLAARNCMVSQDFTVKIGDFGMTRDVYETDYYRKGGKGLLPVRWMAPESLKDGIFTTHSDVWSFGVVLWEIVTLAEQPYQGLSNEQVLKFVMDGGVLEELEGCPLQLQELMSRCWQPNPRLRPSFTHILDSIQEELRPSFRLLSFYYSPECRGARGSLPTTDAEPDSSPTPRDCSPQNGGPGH
UniProt P53778: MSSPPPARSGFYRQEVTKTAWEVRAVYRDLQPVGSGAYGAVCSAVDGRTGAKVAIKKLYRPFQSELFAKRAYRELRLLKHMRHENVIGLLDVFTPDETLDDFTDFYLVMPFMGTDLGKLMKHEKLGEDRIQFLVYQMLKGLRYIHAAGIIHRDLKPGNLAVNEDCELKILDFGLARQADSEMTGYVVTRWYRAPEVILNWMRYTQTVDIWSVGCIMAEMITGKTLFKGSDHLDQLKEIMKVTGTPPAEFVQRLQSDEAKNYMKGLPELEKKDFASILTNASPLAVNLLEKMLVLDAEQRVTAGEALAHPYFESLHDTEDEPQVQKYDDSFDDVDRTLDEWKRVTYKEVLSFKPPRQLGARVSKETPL
UniProt Q96L34: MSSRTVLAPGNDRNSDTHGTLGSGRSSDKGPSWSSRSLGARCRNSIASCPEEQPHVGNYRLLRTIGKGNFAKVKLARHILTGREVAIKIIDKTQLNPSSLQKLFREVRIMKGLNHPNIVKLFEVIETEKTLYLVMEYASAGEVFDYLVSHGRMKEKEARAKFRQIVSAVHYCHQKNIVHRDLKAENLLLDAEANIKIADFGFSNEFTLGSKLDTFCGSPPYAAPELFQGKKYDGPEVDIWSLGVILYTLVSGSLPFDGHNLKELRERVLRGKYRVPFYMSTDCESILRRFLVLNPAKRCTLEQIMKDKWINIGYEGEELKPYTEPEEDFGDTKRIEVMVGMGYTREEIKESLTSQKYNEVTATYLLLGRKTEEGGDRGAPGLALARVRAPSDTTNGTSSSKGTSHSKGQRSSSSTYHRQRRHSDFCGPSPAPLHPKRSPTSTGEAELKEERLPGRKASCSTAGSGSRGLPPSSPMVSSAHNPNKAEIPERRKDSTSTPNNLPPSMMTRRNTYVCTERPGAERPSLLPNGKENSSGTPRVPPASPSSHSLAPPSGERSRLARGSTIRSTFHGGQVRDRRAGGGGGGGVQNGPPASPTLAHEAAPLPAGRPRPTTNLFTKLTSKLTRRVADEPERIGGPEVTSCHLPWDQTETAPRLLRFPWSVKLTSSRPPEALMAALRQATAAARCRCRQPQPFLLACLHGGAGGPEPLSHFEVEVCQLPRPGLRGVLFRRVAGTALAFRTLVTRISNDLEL
UniProt Q13882, whole entry, looked up: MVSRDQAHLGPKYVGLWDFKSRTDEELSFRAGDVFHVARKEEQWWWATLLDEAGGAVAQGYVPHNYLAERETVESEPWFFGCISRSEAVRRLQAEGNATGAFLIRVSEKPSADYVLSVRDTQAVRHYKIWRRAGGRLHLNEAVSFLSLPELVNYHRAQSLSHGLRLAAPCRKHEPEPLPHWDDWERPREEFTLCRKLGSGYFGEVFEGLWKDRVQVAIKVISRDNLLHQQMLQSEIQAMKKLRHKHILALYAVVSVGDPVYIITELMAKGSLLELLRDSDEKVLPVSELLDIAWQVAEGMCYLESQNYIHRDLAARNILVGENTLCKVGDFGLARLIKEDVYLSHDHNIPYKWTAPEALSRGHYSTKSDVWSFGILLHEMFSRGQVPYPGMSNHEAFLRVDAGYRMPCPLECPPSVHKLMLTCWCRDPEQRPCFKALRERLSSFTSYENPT
UniProt Q9NSY1, whole entry, looked up: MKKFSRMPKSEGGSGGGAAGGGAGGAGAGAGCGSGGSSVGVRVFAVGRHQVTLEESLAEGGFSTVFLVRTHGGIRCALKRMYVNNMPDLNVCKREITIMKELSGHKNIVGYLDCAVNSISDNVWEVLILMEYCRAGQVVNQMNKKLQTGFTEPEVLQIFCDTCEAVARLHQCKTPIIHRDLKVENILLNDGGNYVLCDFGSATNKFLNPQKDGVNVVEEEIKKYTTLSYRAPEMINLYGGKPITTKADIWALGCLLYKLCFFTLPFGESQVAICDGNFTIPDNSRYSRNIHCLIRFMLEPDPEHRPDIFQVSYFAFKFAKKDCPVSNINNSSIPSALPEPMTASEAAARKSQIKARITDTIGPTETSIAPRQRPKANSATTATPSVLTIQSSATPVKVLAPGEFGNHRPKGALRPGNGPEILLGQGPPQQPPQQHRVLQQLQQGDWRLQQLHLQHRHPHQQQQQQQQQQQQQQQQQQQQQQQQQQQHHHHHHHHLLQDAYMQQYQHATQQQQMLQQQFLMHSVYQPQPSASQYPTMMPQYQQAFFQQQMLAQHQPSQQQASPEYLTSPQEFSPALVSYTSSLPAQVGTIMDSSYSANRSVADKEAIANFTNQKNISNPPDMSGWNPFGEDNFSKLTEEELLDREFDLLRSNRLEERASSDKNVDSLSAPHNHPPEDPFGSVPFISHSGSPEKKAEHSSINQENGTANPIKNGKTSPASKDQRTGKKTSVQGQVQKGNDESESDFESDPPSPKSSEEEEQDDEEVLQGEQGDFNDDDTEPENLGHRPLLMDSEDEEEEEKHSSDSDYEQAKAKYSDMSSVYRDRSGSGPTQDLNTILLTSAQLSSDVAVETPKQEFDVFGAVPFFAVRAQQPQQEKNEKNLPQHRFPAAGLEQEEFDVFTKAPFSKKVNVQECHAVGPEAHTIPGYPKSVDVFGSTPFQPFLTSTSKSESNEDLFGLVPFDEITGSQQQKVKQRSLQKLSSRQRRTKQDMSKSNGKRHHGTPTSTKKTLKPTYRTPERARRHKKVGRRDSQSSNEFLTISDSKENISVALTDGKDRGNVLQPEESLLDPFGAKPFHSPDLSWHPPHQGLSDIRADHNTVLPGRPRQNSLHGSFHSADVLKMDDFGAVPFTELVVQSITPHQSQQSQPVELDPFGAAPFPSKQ

How the values were obtained:
Conditions in all cases: at 1 µM
[1] = target: Activin receptor type-1B (Homo sapiens) (UniProt P36896); test: Selectivity interaction (KinomeScan (DiscoverX)) EUB0001581a ACVR1B
[2] = target: Ankyrin repeat and protein kinase domain-containing protein 1 (Homo sapiens) (UniProt Q8NFD2); test: Selectivity interaction (KinomeScan (DiscoverX)) EUB0001581a ANKK1
[3] = target: Calcium/calmodulin-dependent protein kinase type 1 (Homo sapiens) (UniProt Q14012); test: Selectivity interaction (KinomeScan (DiscoverX)) EUB0001581a CAMK1
[4] = target: Calcium/calmodulin-dependent protein kinase type II subunit gamma (Homo sapiens) (UniProt Q13555); test: Selectivity interaction (KinomeScan (DiscoverX)) EUB0001581a CAMK2G
[5] = target: Calcium/calmodulin-dependent protein kinase kinase 2 (Homo sapiens) (UniProt Q96RR4); test: Selectivity interaction (KinomeScan (DiscoverX)) EUB0001581a CAMKK2
[6] = target: Serine/threonine-protein kinase Chk1 (Homo sapiens) (UniProt O14757); test: Selectivity interaction (KinomeScan (DiscoverX)) EUB0001581a CHEK1
[7] = target: Casein kinase I isoform alpha-like (Homo sapiens) (UniProt Q8N752); test: Selectivity interaction (KinomeScan (DiscoverX)) EUB0001581a CSNK1A1L
[8] = target: Epithelial discoidin domain-containing receptor 1 (Homo sapiens) (UniProt Q08345); test: Selectivity interaction (KinomeScan (DiscoverX)) EUB0001581a DDR1
[9] = system: Epidermal growth factor receptor (Homo sapiens), P00533 [UNDEFINED MUTATION]; test: (§1) Selectivity interaction (KinomeScan (DiscoverX)) EUB0001581a EGFR
[10] = target: Epidermal growth factor receptor (Homo sapiens, UniProt P00533); test: as §1
[11] = system: eIF-2-alpha kinase GCN2 (Homo sapiens), Q9P2K8 [S808G]; test: Selectivity interaction (KinomeScan (DiscoverX)) EUB0001581a EIF2AK4
[12] = target: Ephrin type-A receptor 8 (Homo sapiens) (UniProt P29322); test: Selectivity interaction (KinomeScan (DiscoverX)) EUB0001581a EPHA8
[13] = target: Vascular endothelial growth factor receptor 1 (Homo sapiens) (UniProt P17948); test: Selectivity interaction (KinomeScan (DiscoverX)) EUB0001581a FLT1
[14] = target: Serine/threonine-protein kinase mTOR (Homo sapiens, UniProt P42345); test: Selectivity interaction (KinomeScan (DiscoverX)) EUB0001581a MTOR
[15] = target: Glycogen synthase kinase-3 beta (Homo sapiens, UniProt P49841); test: Selectivity interaction (KinomeScan (DiscoverX)) EUB0001581a GSK3B
[16] = target: Insulin receptor-related protein (Homo sapiens) (UniProt P14616); test: Selectivity interaction (KinomeScan (DiscoverX)) EUB0001581a INSRR
[17] = target: Tyrosine-protein kinase JAK1 (Homo sapiens, UniProt P23458); test: Selectivity interaction (KinomeScan (DiscoverX)) EUB0001581a JAK1
[18] = target: Tyrosine-protein kinase JAK3 (Homo sapiens) (UniProt P52333); test: Selectivity interaction (KinomeScan (DiscoverX)) EUB0001581a JAK3
[19] = target: Dual specificity mitogen-activated protein kinase kinase 5 (Homo sapiens) (UniProt Q13163); test: Selectivity interaction (KinomeScan (DiscoverX)) EUB0001581a MAP2K5
[20] = target: Dual specificity mitogen-activated protein kinase kinase 6 (Homo sapiens) (UniProt P52564); test: Selectivity interaction (KinomeScan (DiscoverX)) EUB0001581a MAP2K6
[21] = target: Mitogen-activated protein kinase kinase kinase 4 (Homo sapiens) (UniProt Q9Y6R4); test: Selectivity interaction (KinomeScan (DiscoverX)) EUB0001581a MAP3K4
[22] = target: Mitogen-activated protein kinase kinase kinase kinase 2 (Homo sapiens) (UniProt Q12851); test: Selectivity interaction (KinomeScan (DiscoverX)) EUB0001581a MAP4K2
[23] = target: Mitogen-activated protein kinase 12 (Homo sapiens) (UniProt P53778); test: Selectivity interaction (KinomeScan (DiscoverX)) EUB0001581a MAPK12
[24] = target: MAP/microtubule affinity-regulating kinase 4 (Homo sapiens) (UniProt Q96L34); test: Selectivity interaction (KinomeScan (DiscoverX)) EUB0001581a MARK4
[25] = target: Serine/threonine-protein kinase Nek1 (Homo sapiens) (UniProt Q96PY6); test: Selectivity interaction (KinomeScan (DiscoverX)) EUB0001581a NEK1
[26] = target: Serine/threonine-protein kinase Nek11 (Homo sapiens) (UniProt Q8NG66); test: Selectivity interaction (KinomeScan (DiscoverX)) EUB0001581a NEK11
[27] = target: BDNF/NT-3 growth factors receptor (Homo sapiens) (UniProt Q16620); test: Selectivity interaction (KinomeScan (DiscoverX)) EUB0001581a NTRK2
[28] = target: Cyclin-dependent kinase 16 (Homo sapiens) (UniProt Q00536); test: Selectivity interaction (KinomeScan (DiscoverX)) EUB0001581a CDK16
[29] = target: cAMP-dependent protein kinase catalytic subunit alpha (Homo sapiens, UniProt P17612); test: Selectivity interaction (KinomeScan (DiscoverX)) EUB0001581a PRKACA
[30] = target: Protein-tyrosine kinase 6 (Homo sapiens, UniProt Q13882); test: Selectivity interaction (KinomeScan (DiscoverX)) EUB0001581a PTK6
[31] = target: Ribosomal protein S6 kinase alpha-1 (Homo sapiens, UniProt Q15418); test: Selectivity interaction (KinomeScan (DiscoverX)) EUB0001581a RPS6KA1
[32] = target: Serine/threonine-protein kinase Sgk3 (Homo sapiens) (UniProt Q96BR1); test: Selectivity interaction (KinomeScan (DiscoverX)) EUB0001581a SGK3
[33] = target: STE20-like serine/threonine-protein kinase (Homo sapiens, UniProt Q9H2G2); test: Selectivity interaction (KinomeScan (DiscoverX)) EUB0001581a SLK
[34] = target: Serine/threonine-protein kinase STK11 (Homo sapiens) (UniProt Q15831); test: Selectivity interaction (KinomeScan (DiscoverX)) EUB0001581a STK11
[35] = target: Angiopoietin-1 receptor (Homo sapiens) (UniProt Q02763); test: Selectivity interaction (KinomeScan (DiscoverX)) EUB0001581a TEK
[36] = target: Tyrosine-protein kinase receptor Tie-1 (Homo sapiens) (UniProt P35590); test: Selectivity interaction (KinomeScan (DiscoverX)) EUB0001581a TIE1
[37] = target: Serine/threonine-protein kinase tousled-like 2 (Homo sapiens) (UniProt Q86UE8); test: Selectivity interaction (KinomeScan (DiscoverX)) EUB0001581a TLK2
[38] = target: BMP-2-inducible protein kinase (Homo sapiens) (UniProt Q9NSY1)
[39] = target: Ribosomal protein S6 kinase alpha-2 (Homo sapiens) (UniProt Q15349)

C[C@@H]1C[C@H](N)C[C@H](c2ccncc2NC(=O)c2ccc(F)c(-c3c(F)cccc3F)n2)C1
% of control [1]: 88% | % of control [2]: 100% | % of control [3]: 100% | % of control [4]: 100% | % of control [5]: 100% | % of control [6]: 85% | % of control [7]: 100% | % of control [8]: 98% | % of control [9]: 88% | % of control [10]: 87% | % of control [11]: 80% | % of control [12]: 91% | % of control [13]: 100% | % of control [14]: 100% | % of control [15]: 21% | % of control [16]: 100% | % of control [17]: 71% | % of control [18]: 100% | % of control [19]: 66% | % of control [20]: 100% | % of control [21]: 100% | % of control [22]: 83% | % of control [23]: 100% | % of control [24]: 77% | % of control [25]: 100% | % of control [26]: 100% | % of control [27]: 82% | % of control [28]: 100% | % of control [29]: 100% | % of control [30]: 100% | % of control [31]: 87% | % of control [32]: 68% | % of control [33]: 76% | % of control [34]: 100% | % of control [35]: 100% | % of control [36]: 100% | % of control [37]: 100% | % of control [38]: 96% | % of control [39]: 94%
